This is one part of the list. Further columns of the screen follow, without active or inactive calls. Compounds called inactive in the main read-out are mostly missing here. Potencies come from curve fits of mixed quality, noted in brackets.
Test: qHTS Assay to Find Inhibitors of Chronic Active B-Cell Receptor Signaling
Conditions: ABC-DLBCL IkBa-CBG/CBR reporter, luminescence ratio (green luciferase fused to IkBa over red control in TMD8 lymphoma cells), 4 h
Outline: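 TMD8 human ABC-DLBCL cells with doxycycline-inducible IκBα–green luciferase fusion and unfused red luciferase, in 0.5% FBS medium; compounds up to 46 uM, 4 h at 37C. Green/red luminescence ratio, filter-overlap corrected, fitted to concentration-response curves.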

[1] = measured here: CBR red luminescence, cell number
[2] = measured here: IkBa-CBG green luminescence

Row | Compound | AC50 [1] | AC50 [2]
1 | CN1CCc2c(sc3c2C(=O)NC(c2ccc(-c4cccc(Cl)c4)o2)N3)C1 (configuration not stated) | 2.82 µM [falling, full curve] | –
2 | O=C(Nc1ccncc1)c1ccccc1Cl | 35.5 µM [falling, single point] | –
3 | Cc1cccc(NC(=O)CN(C)S(=O)(=O)c2ccc(Br)cc2)n1 | 0.82 µM [rising, full curve, poor fit] | –
4 | COc1ccc(NC(=O)CS(=O)(=O)c2cn(CC(=O)N3CCOCC3)c3ccccc23)cc1OC | 35.5 µM [falling, single point] | –
5 | Fc1ccccc1-n1cn[nH]c1=S | 35.5 µM [falling, single point] | –
6 | Cc1ccc(CNC(=O)[C@H](C)NC(=O)C2CCN(C(=O)[C@@H](N)CC(C)C)CC2)cc1 | 20 µM [falling, partial curve, poor fit] | –
7 | Cc1cccc(N(C(=O)c2csnn2)C(C(=O)NCc2ccccc2)c2ccncc2)c1 (configuration not stated) | 0.794 µM [falling, partial curve, poor fit] | –
8 | C[C@H](NC(=O)c1cc2cc(Cl)ccc2n1C)C(=O)N1CCC(C(=O)O)CC1 | 31.6 µM [rising, single point] | –
9 | CC(C)(O)c1cc2ccc(C#CCCN3C(=O)c4ccccc4C3=O)cc2c(=O)o1 | 7.31 µM [rising, partial curve, poor fit] | –
10 | Cc1ccc(-c2nn(-c3ccc(F)cc3)cc2C(=O)NC2CCC(O)CC2)cc1 (configuration not stated) | 14.6 µM [rising, partial curve, poor fit] | –
11 | COc1cccc2sc3cc(NCC[C@@H]4CCCN4C)ccc3c(=O)c12 | 18.4 µM [falling, single point] | –
12 | COc1ccc(C(=O)Nc2ccccc2C(=O)O)cc1NC(=O)C(c1ccccc1)c1ccccc1 | 2.82 µM [falling, full curve, poor fit] | –
13 | COc1ccccc1C(=O)Nc1nc2ccccc2[nH]1 | 0.316 µM [falling, full curve] | –
14 | O=C(Nc1ccc(Cl)cn1)Nc1cccs1 | 14.6 µM [falling, single point] | –
15 | Cc1cc(N2CCOCC2)nc(SCC(=O)c2ccccc2)n1 | 10 µM [falling, partial curve] | –
16 | Cc1ccc(-c2ccc(/C=C(\C#N)C(=O)Nc3cc(C)nn3-c3ccccc3)o2)cc1 | 29.1 µM [falling, single point] | –
17 | COc1ccc(CCC(=O)NCc2ccccc2Cl)cc1OC | 12.6 µM [rising, partial curve, poor fit] | –
18 | O=C(CSc1ncnc2c1cnn2Cc1ccccc1)Nc1ccc2c(c1)OCCO2 | 18.4 µM [rising, single point] | –
19 | O=C(NCC(c1ccco1)N1CCc2ccccc2C1)C(=O)Nc1ccccc1F (configuration not stated) | 9.2 µM [falling, partial curve, poor fit] | –
20 | CN1CCc2c(sc3nc(NCCO)n(-c4cccc(Cl)c4)c(=O)c23)C1 | 6.31 µM [rising, single point] | –

Two compounds picked at random from the list so far:
Row | Compound | AC50 [1] | AC50 [2]
5 | Fc1ccccc1-n1cn[nH]c1=S | 35.5 µM [falling, single point] | –
1 | CN1CCc2c(sc3c2C(=O)NC(c2ccc(-c4cccc(Cl)c4)o2)N3)C1 (configuration not stated) | 2.82 µM [falling, full curve] | –

Following part.

Row | Compound | AC50 [1] | AC50 [2]
21 | CCCCn1c(=O)[nH]c2c(oc3ccccc32)c1=O | 2.51 µM [falling, full curve, poor fit] | –
22 | Cc1ccc(C)n1-c1ccc(NC(=O)c2ccccc2)cc1 | 16.4 µM [falling, partial curve, poor fit] | –
23 | COc1ccc(CNC(=O)C/C(C)=N/NC(=O)c2ccccc2OC)cc1 | 0.355 µM [falling, full curve, poor fit] | –
24 | CCOC(=O)C1=CN(Cc2ccco2)S(=O)(=O)N(CC)C1c1ccc(F)c(Cl)c1 (configuration not stated) | 29.1 µM [falling, single point] | –
25 | Cc1nc2ccccc2nc1CSc1nnc(N)s1 | 6.51 µM [rising, single point] | –
26 | O=C(CCc1nnc2n(Cc3ccc(Cl)cc3)c(=O)c3ccccc3n12)NCCN1CCCC1 | 3.55 µM [falling, single point] | –
27 | CC1CCCN(C(=O)C(C)Sc2nc(-c3ccccc3)cc(C(F)(F)F)n2)C1 (configuration not stated) | 4.11 µM [rising, single point] | –
28 | CCN(CC)C(=O)Cn1cc(C(=O)C(=O)NCCc2c[nH]c3ccccc23)c2ccccc21 | 1.12 µM [falling, full curve] | –
29 | CN(C)c1ccc(NC(=O)Cn2c(SCc3ccc(F)cc3)nc3cccnc32)cc1 | 6.31 µM [falling, partial curve, poor fit] | –
30 | Brc1ccc2[nH]c3c(N4CCc5ccccc5C4)ncnc3c2c1 | 32.6 µM [falling, single point] | –
31 | COc1ccc(-c2cc(CCC(=O)N3CCN(c4cc(C)ccc4C)CC3)[nH]n2)cc1 | – | 8.2 µM [falling, partial curve, poor fit]
32 | OCCN1CCN(CC#CCn2c3ccccc3c3ccccc32)CC1 | 15.8 µM [falling, partial curve, poor fit] | –
33 | O=c1cc(-c2ccccc2)nc2nc(COc3ccccc3)[nH]n12 | 0.651 µM [falling, full curve] | –
34 | O=C(c1cccc(C(=O)N2CCN(c3ccc(F)cc3)CC2)c1)N1CCN(c2ccc(F)cc2)CC1 | 17.8 µM [falling, single point] | –
35 | O=C(O)CSCC(=O)N1CCN(Cc2ccc3c(c2)OCO3)CC1 | 35.5 µM [rising, partial curve, poor fit] | –
36 | O=C(/C=C/c1cccc(Cl)c1)c1nc2ccccc2[nH]1 | 8.91 µM [rising, partial curve] | 8.91 µM [falling, partial curve]
37 | Fc1ccc(-c2ccnn2-c2ccccc2)cc1 | 12.6 µM [rising, partial curve] | –
38 | Cc1ccc(CNC(=O)C(=O)NCC(c2cccs2)S(=O)(=O)c2cccs2)cc1 (configuration not stated) | 5.62 µM [rising, single point] | –
39 | NC(=O)c1ccccc1NC(=O)COC(=O)C1(c2ccccc2)CC1 | 4.11 µM [falling, full curve, poor fit] | –
40 | CCOC(=O)c1[nH]c2ccccc2c1NC(=O)c1ccc(Br)o1 | 14.6 µM [falling, partial curve, poor fit] | 18.4 µM [rising, partial curve, poor fit]
